# Structures can show the parent of a compound that is named as a salt. The list shows a part of the results. Many values rest on one well or one pass, so single values are uncertain.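 The strains were three CDC resistance-bank clinical C. auris isolates from clades III, IV and I, cultured in RPMI-1640 at 35°C. Growth was background-corrected OD600 versus vehicle-only wells on the same plate. A hit needed >50% inhibition in two or more strains plus a plate-corrected B-score exceeding 0.1.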
# Legend:
# Test in all cases: growth relative to vehicle control (OD600 ratio) (fraction); higher = less inhibition
# Settings in all cases: 24 h
# [1] = test system: C. auris AR-384
# [2] = test system: C. auris AR-386
# [3] = test system: C. auris AR-387
Compound,growth ([1]; 1 µM),growth ([1]; 10 µM),growth ([2]; 1 µM),growth ([2]; 10 µM),growth ([3]; 1 µM),growth ([3]; 10 µM)
O=C(NC[C@H](O)CO)c1ccncc1Nc1ccc(I)cc1F,0.88,1,1.17,0.97,1.05,1.13
NC(N)=Nc1nc(CSCC/C(N)=N/S(N)(=O)=O)cs1 [Famotidine],0.92,1.11,1.2,0.96,1.01,1.13
CNC(=C[N+](=O)[O-])NCCSCc1csc(CN(C)C)n1 [Nizatidine],0.96,1.09,1.25,0.95,1.16,0.99
CC[N+](CC)(CC)CCOc1cccc(OCC[N+](CC)(CC)CC)c1OCC[N+](CC)(CC)CC [Gallamine Triethiodide],1.06,0.96,0.82,1.14,1.12,0.91
CC[C@H]1OC(=O)[C@H](C)[C@@H](O[C@H]2C[C@@](C)(OC)[C@@H](O)[C@H](C)O2)[C@H](C)[C@@H](O[C@@H]2O[C@H](C)C[C@H](N(C)C)[C@H]2O)[C@](C)(O)C[C@@H](C)C(=O)[C@H](C)[C@@H](O)[C@]1(C)O [Erythromycin],0.6,1.3,0.93,1.13,0.95,1.04
NC(CO)C(=O)NNCc1ccc(O)c(O)c1O (centres undefined) [Benserazide HCl],1.09,0.83,1.15,0.95,0.67,0.82
CC(=O)N1CCN(c2ccc(OCC3COC(Cn4ccnc4)(c4ccc(Cl)cc4Cl)O3)cc2)CC1 (centres undefined) [Ketoconazole],0.41,0.86,0.52,0.04,0.04,0.04
COc1ccc(C[C@@H]2c3cc(OC)c(OC)cc3CC[N@+]2(C)CCC(=O)OCCCCCOC(=O)CC[N@@+]2(C)CCc3cc(OC)c(OC)cc3[C@H]2Cc2ccc(OC)c(OC)c2)cc1OC [Cisatracurium Besylate],0.78,0.87,0.65,0.84,0.82,0.75
CCN[C@H]1C[C@H](C)S(=O)(=O)c2sc(S(N)(=O)=O)cc21 [Dorzolamide HCl],1.34,1.11,0.79,1.23,0.92,1.03
CC(C)[C@H](N)C(=O)OCCOCn1cnc2c(=O)nc(N)[nH]c21 [Valaciclovir HCl],1.04,0.88,1.36,0.74,1.04,0.97
C[N+]1(C)CCC(OC(=O)C(O)(c2ccccc2)C2CCCC2)C1 (centres undefined) [Glycopyrrolate],1.1,0.84,0.69,0.63,0.78,0.98
O=C(O)CCCCCCCC(=O)O [Azelaic acid],0.81,0.86,0.75,0.68,0.7,0.85
CC(NCCc1ccc(O)cc1)C(O)c1ccc(O)cc1 (centres undefined) [Ritodrine HCl],0.82,1.23,1.21,1.05,0.9,0.74
Cc1cccc(Nc2ccncc2S(=O)(=O)NC(=O)NC(C)C)c1 [Torsemide],1.03,1.06,1.41,1.47,1.6,1.33
CC(=O)Nc1cccc(-n2c(=O)n(C3CC3)c(=O)c3c(Nc4ccc(I)cc4F)n(C)c(=O)c(C)c32)c1,0.89,0.78,1.32,0.97,0.66,0.6
CN1CC2c3ccccc3Oc3ccc(Cl)cc3C2C1 (centres undefined) [Asenapine maleate],0.98,0.59,0.82,1.17,1.03,0.83
Cc1ccc(C(=O)Nc2ccc(CN3CCN(C)CC3)c(C(F)(F)F)c2)cc1C#Cc1cnc2cccnn12,0.71,0.65,1.14,1.14,0.97,0.68
CCCCc1oc2ccc(NS(C)(=O)=O)cc2c1C(=O)c1ccc(OCCCN(CCCC)CCCC)cc1 [Dronedarone HCl],0.7,1.06,0.7,1.08,1,1.18
Nc1c2c(nc3ccccc13)CCCC2 [Tacrine HCl],0.85,0.75,0.62,0.89,0.76,0.86
Cc1nc(C)c(Cl)c(O)c1Cl [Clopidol],1.07,1.02,0.57,0.66,0.84,0.79
COc1cc2nccc(Oc3ccc(NC(=O)Nc4cc(C)on4)c(Cl)c3)c2cc1OC [Tivozanib (AV-951)],1.47,0.71,0.84,1.36,1.19,0.97
CN(Cc1cnc2nc(N)nc(N)c2n1)c1ccc(C(=O)N[C@@H](CCC(=O)O)C(=O)O)cc1 [Methotrexate],0.87,1.29,1.4,0.99,0.89,0.88
Nc1ncnc2c1ncn2[C@@H]1O[C@H](CO)[C@@H](O)[C@H]1O [Adenosine],0.7,0.64,0.69,0.8,0.78,0.99
COC(=O)CCc1ccc(OCC(O)CNC(C)C)cc1 (centres undefined) [Esmolol HCl],0.95,0.96,1.11,1.26,0.96,1.05
C[C@H]1CNCCCN1S(=O)(=O)c1cccc2cncc(F)c12 [Ripasudil (K-115) hydrochloride dihydrate],1.01,1.12,0.77,0.84,0.79,0.86

# Single records, from the list above. Order of values: growth ([1]; 1 µM)	growth ([1]; 10 µM)	growth ([2]; 1 µM)	growth ([2]; 10 µM)	growth ([3]; 1 µM)	growth ([3]; 10 µM)
# C[C@H]1CNCCCN1S(=O)(=O)c1cccc2cncc(F)c12 [Ripasudil (K-115) hydrochloride dihydrate] in the list: 1.01	1.12	0.77	0.84	0.79	0.86
# O=C(NC[C@H](O)CO)c1ccncc1Nc1ccc(I)cc1F in the list: 0.88	1	1.17	0.97	1.05	1.13

# (next part)

Compound,growth ([1]; 1 µM),growth ([1]; 10 µM),growth ([2]; 1 µM),growth ([2]; 10 µM),growth ([3]; 1 µM),growth ([3]; 10 µM)
CCN(CCCc1ccccc1)CCCc1ccccc1 [Alverine Citrate],0.95,0.96,0.77,1.39,0.89,1.09
C[C@]12CC[C@H](O)CC1=CC[C@@H]1[C@@H]2CC[C@]2(C)C(n3cnc4ccccc43)=CC[C@@H]12 [Galeterone],0.9,0.84,0.67,0.72,0.82,1.03
C=C1CC[C@H](O)C/C1=C/C=C1\CCC[C@]2(C)[C@@H]([C@H](C)CCCC(C)C)CC[C@@H]12 [Vitamin D3],1.27,0.7,1.06,0.83,0.84,0.98
CC1(C)Cc2c(-c3ccccc3)c(-c3ccc(Cl)cc3)c(CC(=O)O)n2C1 [Licofelone],0.92,0.87,0.66,0.88,0.76,0.64
N#C[C@@H]1CCCN1C(=O)CNC12CC3CC(CC(O)(C3)C1)C2 [Vildagliptin (LAF-237)],1,0.81,1.08,1.02,0.92,0.9
CCOc1ccc2nc(S(N)(=O)=O)sc2c1 [Ethoxzolamide],1.16,1.08,0.95,1.09,0.83,0.66
Cn1cnc2c(F)c(Nc3ccc(Br)cc3F)c(C(=O)NOCCO)cc21,1.01,0.91,0.66,0.91,0.9,0.81
CN(C)Cc1c(C(=O)NCCOc2ccc(C(=O)NO)cc2)oc2ccccc12,0.84,0.91,0.73,0.59,0.73,0.71
O=C1NCC2(CCN(CCc3ccccc3)CC2)O1 [Fenspiride HCl],1.04,1.12,1.35,1.24,1.34,1.39
CCCCCCCCCCCCCCCC[N+](C)(C)C [Cetrimonium Bromide (CTAB)],0.98,0.33,1,0.18,0.97,0.13
CCCCNc1ccc(C(=O)OCCN(C)C)cc1 [Tetracaine HCl],0.88,0.79,1.04,0.63,0.75,0.89
NC(=O)N1c2ccccc2C=Cc2ccccc21 [Carbamazepine],0.8,0.98,1.19,1.26,0.94,0.93
Cc1cc(C2CCCCC2)n(O)c(=O)c1 [Ciclopirox],1.19,0.38,0.81,0.1,0.58,0.01
CCc1ccc(CCOc2ccc(CC3SC(=O)NC3=O)cc2)nc1 (centres undefined) [Pioglitazone HCl],0.84,1.11,1.08,1.47,1.51,1.15
O=C1CC[C@@H](C(=O)N2CSC[C@H]2C(=O)O)N1 [Pidotimod],1.01,0.73,1.11,0.83,0.57,0.7
COc1ccccc1N1CCN(CC(O)COc2cccc3ccccc23)CC1 (centres undefined) [Naftopidil DiHCl],1.49,0.72,0.8,0.92,1.15,0.85
CC(C)[C@H]1C(=O)N[C@@H](CCCNC(=N)N)C(=O)NCC(=O)N[C@@H](CC(=O)O)C(=O)N[C@H](Cc2ccccc2)C(=O)N1C [Cilengitide trifluoroacetate],0.94,0.89,0.99,0.92,0.92,0.98
O=C([O-])C(O)[C@H](O)[C@@H](O)[C@H](O)[C@H](O)CO.O=C([O-])C(O)[C@H](O)[C@@H](O)[C@H](O)[C@H](O)CO.[Ca+2] (some centres undefined) [Calcium Gluceptate],0.68,0.56,0.8,0.86,0.67,0.61
O=C(NS(=O)(=O)c1ccc(Br)s1)c1ccc(Cl)cc1Cl [Tasisulam],1.06,1.31,1.05,1.12,0.9,0.97
CSc1ccc2c(c1)N(CCC1CCCCN1C)c1ccccc1S2 (centres undefined) [Thioridazine HCl],1.16,1.21,1.38,1.32,1.48,1.44
NC(=O)c1cnccn1 [Pyrazinamide],0.77,0.94,1.13,0.75,0.69,0.77
COc1ccc(-c2ccc3cc(C(=O)O)ccc3c2)cc1C12CC3CC(CC(C3)C1)C2 [Adapalene],0.63,1.14,1.13,1.2,0.98,0.96
OCCOc1ccc(/C(=C(/CCCl)c2ccccc2)c2ccccc2)cc1 [Ospemifene],0.76,0.76,0.78,0.68,0.68,0.87
CCOC(=O)[C@@H](N)Cc1ccc(-c2cc(O[C@H](c3ccc(Cl)cc3-n3ccc(C)n3)C(F)(F)F)nc(N)n2)cc1 [Telotristat Etiprate (LX 1606 Hippurate)],1.18,1.31,1.01,0.65,0.91,1.07

# — the supplement of paper PMC10470496
